Patent US20210347870A1
These are yes or no findings as the source states them, for the method shown. Some results given as binding are weak or reduced against the parent protein; the word gives no strength.

Sequences of proteins named here, by UniProt entry; tags and fusion partners are left off. A change or cut given only in a name is not applied to a line headed by its entry. A line that says so, or that is headed by a name, gives the form on record, which may keep a tag or linker.
recombinant human mesothelin protein (Q13421, form named): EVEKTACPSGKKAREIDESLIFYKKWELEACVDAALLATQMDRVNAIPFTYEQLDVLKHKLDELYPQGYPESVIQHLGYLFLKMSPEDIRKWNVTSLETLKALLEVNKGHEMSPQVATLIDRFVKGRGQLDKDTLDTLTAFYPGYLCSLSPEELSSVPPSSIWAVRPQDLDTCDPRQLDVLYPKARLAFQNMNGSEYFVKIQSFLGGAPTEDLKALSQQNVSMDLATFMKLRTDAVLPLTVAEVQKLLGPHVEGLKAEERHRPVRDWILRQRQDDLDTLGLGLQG

Target: recombinant human mesothelin protein (human) (UniProt Q13421)
Experiment: ELISA: scFv coated at 200 ng/ml, 100 ng/ml recombinant human mesothelin, detection antibody and streptavidin-HRP, absorbance at 450 nm

| Binder | binding |
| --- | --- |
| MS501 scFv protein (scFv) scFv: EVQLLESGGGLVQPGGSLRLSCAASGFTFSNYAMSWVRQAPGKGLEWVSGIYPDSGSTYYADSVKGRFTISRDNSKNTLYLQMNSLRAEDTAVYYCARNIYTFDYWGQGTLVTVSSGGGGSGGGGSGGGGSQSVLTQPPSASGTPGQRVTISCSGSSSNIGSNAVSWYQQLPGTAPKLLIYYNNQRPSGVPDRFSGSKSGTSASLAISGLRSEDEADYYCGSWDSSLSGYVFGGGTKLTVLG | binds |
| MS503 scFv protein (scFv) scFv: EVQLLESGGGLVQPGGSLRLSCAASGFTFSNYAMSWVRQAPGKGLEWVSSIYPGDGSTYYADSVKGRFTISRDNSKNTLYLQMNSLRAEDTAVYYCAKNAFTFDYWGQGTLVTVSSGGGGSGGGGSGGGGSQSVLTQPPSASGTPGQRVTISCSGSSSNIGSNAVSWYQQLPGTAPKLLIYYNSHRPSGVPDRFSGSKSGTSASLAISGLRSEDEADYYCGTWDSSLSGYVFGGGTKLTVLG | binds |
| C2G4 scFv protein (scFv) scFv: EVQLLESGGGLVQPGGSLRLSCAASGFTFSNYAMSWVRQAPGKGLEWVSGIPPDSGSKYYADSVRGRFTVSRDNSKNTLYLQMNSLRAEDTAVYYCAKNMLSFDYWGQGTLVTVSSGGGGSGGGGSGGGGSQSVLTQPPSASGTPGQRVTISCTGSSSNIGSNAVSWYQQLPGTAPKLLIYYNSKRPSGVPDRFSGSKSGTSASLAISGLRSEDEADYYCGSWDPSLNGYVFGGGTKVTVLG | binds |
